# These are yes or no findings as the source states them, for the method shown. Binding seen in cells or lysates may run through a third protein. Some binding calls cover weakened binding; strength is not graded here.
# The chains behind the UniProt entries cited, without tags or fusion partners.
# UniProt Q9WVH4: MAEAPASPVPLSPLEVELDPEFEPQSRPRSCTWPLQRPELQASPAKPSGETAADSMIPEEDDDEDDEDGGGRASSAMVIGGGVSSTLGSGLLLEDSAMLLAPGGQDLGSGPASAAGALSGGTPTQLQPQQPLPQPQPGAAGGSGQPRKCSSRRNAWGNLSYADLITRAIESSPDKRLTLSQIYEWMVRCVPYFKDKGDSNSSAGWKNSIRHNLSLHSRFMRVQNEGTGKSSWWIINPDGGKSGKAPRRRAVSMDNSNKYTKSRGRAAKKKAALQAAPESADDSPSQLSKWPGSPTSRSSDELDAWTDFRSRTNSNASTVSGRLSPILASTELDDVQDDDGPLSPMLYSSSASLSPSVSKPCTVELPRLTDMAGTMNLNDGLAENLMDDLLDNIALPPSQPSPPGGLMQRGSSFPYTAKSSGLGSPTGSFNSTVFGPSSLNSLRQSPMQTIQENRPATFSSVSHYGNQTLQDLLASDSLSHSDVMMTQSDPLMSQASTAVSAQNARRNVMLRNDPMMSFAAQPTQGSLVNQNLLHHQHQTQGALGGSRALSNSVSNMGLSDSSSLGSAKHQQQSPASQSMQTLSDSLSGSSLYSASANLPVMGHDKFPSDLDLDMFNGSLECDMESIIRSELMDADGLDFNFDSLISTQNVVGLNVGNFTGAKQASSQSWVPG
# UniProt P70288: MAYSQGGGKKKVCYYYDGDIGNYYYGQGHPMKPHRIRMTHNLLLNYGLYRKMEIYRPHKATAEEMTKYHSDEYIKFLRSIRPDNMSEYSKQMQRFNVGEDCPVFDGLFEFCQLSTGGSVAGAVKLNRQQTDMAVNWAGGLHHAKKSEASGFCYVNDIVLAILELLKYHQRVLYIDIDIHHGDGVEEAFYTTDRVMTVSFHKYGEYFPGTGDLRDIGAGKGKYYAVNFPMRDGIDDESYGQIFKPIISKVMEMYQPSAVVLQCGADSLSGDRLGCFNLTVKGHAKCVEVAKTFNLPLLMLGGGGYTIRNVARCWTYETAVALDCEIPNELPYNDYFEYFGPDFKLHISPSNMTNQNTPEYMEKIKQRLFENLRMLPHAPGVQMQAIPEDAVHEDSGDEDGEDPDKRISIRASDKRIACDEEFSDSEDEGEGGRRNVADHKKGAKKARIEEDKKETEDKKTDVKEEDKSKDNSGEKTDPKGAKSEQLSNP
# Biological target: forkhead box protein O3a (mouse (endogenous in ovaries)) (UniProt Q9WVH4)
# Experiment: co-IP; ovaries of F0 SD and F0 HFD (4 weeks of high-fat diet) female mice lysed in IP buffer (KCl 50 mM, Tris-HCl 50 mM pH 8, EDTA 10 mM, 1% Nonidet P-40); 1-2 ug specific antibody or IgG with protein G-sepharose, 6 h at 4 °C, six washes; SDS-PAGE and immunoblotting
substance,measurement,value
HDAC2 (from UniProt P70288 1-488),binding,binds
